{"source": "paper PMC7099625", "about": "“Exploration of thiaheterocyclic hHDAC6 inhibitors as potential antiplasmodial agents” (Future Medicinal Chemistry, 2017)", "data": [{"system": "P. falciparum (Dd2)", "experiment": "Antiplasmodial parasite lactate dehydrogenase assay, chloroquine-resistant strain Dd2", "format": "cell-based, Plasmodium falciparum", "conditions": "ratio Dd2 vs NF54", "method": "Continuous in vitro cultures of asexual erythrocyte stages of P. falciparum were maintained using a modified method of Trager and Jensen. Quantitative assessment of antiplasmodial activity in vitro was determined via the parasite lactate dehydrogenase assay using a modified method described by Makler. The test samples were prepared to a 20 mg/ml stock solution in 100% DMSO. Stock solutions were stored at -20°C. Further dilutions were prepared in complete medium on the day of the experiment. CQ and artesunate were used as the reference drugs. A full dose–response was performed to determine the concentration inhibiting 50% of parasite growth (IC50 value). Test samples were tested at a starting concentration of 100 μg/ml, which was then serially diluted twofold in complete medium to give 10 concentrations; with the lowest concentration being 0.2 μg/ml. The same dilution technique was used for all samples. References were tested at a starting concentration of 1 μg/ml.\nThe antiplasmodial activity of this set of structures was first determined through a modified parasite lactate dehydrogenase assay against a CQ-sensitive (CQS) strain of P. falciparum (NF54). […] Finally, a selectivity index (SI = IC50 CHO/IC50 NF54) and a resistance index (RI = IC50 Dd2/IC50 NF54) was calculated to be able to easily compare the therapeutic window (active concentration vs toxic concentration) and sensitivity toward resistance developing.", "values": [{"compound": "O=C(NO)c1ccc(NCc2csc3cc(-c4ccccc4)ccc23)cc1", "note": "[Compound 2i]", "RI (resistance index) = IC50 (Dd2)/IC50 (NF54)": 0.3}, {"compound": "O=C(NO)c1ccc(Cn2c3c(c4ccccc42)C[S+]([O-])CC3)cc1", "note": "(racemic) [Compound 1j]", "RI (resistance index) = IC50 (Dd2)/IC50 (NF54)": 1.0}, {"compound": "O=C(NO)c1ccc(Cn2c3c(c4cc(F)ccc42)CSCC3)cc1", "note": "[Compound 1c]", "RI (resistance index) = IC50 (Dd2)/IC50 (NF54)": 1.4}, {"compound": "O=C(NO)c1ccc(CN2c3ccccc3S(=O)(=O)CC3CCCC32)cc1", "note": "(centres unmarked) [Compound 3d]", "RI (resistance index) = IC50 (Dd2)/IC50 (NF54)": 2.6}, {"compound": "O=C(NO)c1cccc(Cn2c3c(c4cc(F)ccc42)CSCC3)c1", "note": "[Compound 1o]", "RI (resistance index) = IC50 (Dd2)/IC50 (NF54)": 1.1}, {"compound": "O=C(NO)c1ccc(NCc2csc3ccccc23)cc1", "note": "[Compound 2a]", "RI (resistance index) = IC50 (Dd2)/IC50 (NF54)": 1.3}, {"compound": "O=C(NO)c1ccc(CN2c3cc(C(F)(F)F)ccc3S(=O)(=O)CC3CCCC32)cc1", "note": "(racemic) [Compound 3f]", "RI (resistance index) = IC50 (Dd2)/IC50 (NF54)": 0.8}, {"compound": "O=C(NO)c1ccc(Cn2c3c(c4cc(Br)ccc42)CS(=O)(=O)CC3)cc1", "note": "[Compound 1i]", "RI (resistance index) = IC50 (Dd2)/IC50 (NF54)": 3.9}, {"compound": "O=C(NO)c1ccc(CN2c3cc(Cl)ccc3S(=O)(=O)CC3CCCC32)cc1", "note": "(racemic) [Compound 3e]", "RI (resistance index) = IC50 (Dd2)/IC50 (NF54)": 0.9}, {"compound": "CCN(CC)CCCC(C)Nc1ccnc2cc(Cl)ccc12", "note": "(centres unmarked) [Chloroquine, chloroquine, reference compound]", "RI (resistance index) = IC50 (Dd2)/IC50 (NF54)": 17.5}, {"compound": "O=C(NO)c1ccc(NCc2csc3cc(Br)ccc23)cc1", "note": "[Compound 2g]", "RI (resistance index) = IC50 (Dd2)/IC50 (NF54)": 1.2}, {"compound": "O=C(NO)c1cccc(Cn2c3c(c4ccccc42)CSCC3)c1", "note": "[Compound 1n]", "RI (resistance index) = IC50 (Dd2)/IC50 (NF54)": 1.5}, {"compound": "O=C(NO)c1ccc(Cn2c3c(c4cc(F)ccc42)C[S+]([O-])CC3)cc1", "note": "(racemic) [Compound 1k]", "RI (resistance index) = IC50 (Dd2)/IC50 (NF54)": 2.0}, {"compound": "O=C(NO)c1ccc(NCc2csc3ccc(Br)cc23)cc1", "note": "[Compound 2c]", "RI (resistance index) = IC50 (Dd2)/IC50 (NF54)": 2.4}]}]}
